# In the supplement of paper PMC8728848:
# The other results are listed elsewhere or left out.
# B1: CcfD (Bacteroides vulgatus), A6KYX8 (protein)
# chain: MKYKNYFKSIIYLALGAFTLGSCEDFLDRQEDEKLTFDKIWESRNTTQQYWLNAMSFLPNENGSLQGDTEPYLGASDECTIAYDRQYRWINFGTWNPSQVPYYKMDHYYKGIRECNIFLQNVYKCSDPLVTKDQLDEWYWQTRFARAYYYFLMMRDYGPVFLLGDDLLDFTASTEELYRPRNTWDQCVNYVVSEMTQCAESGVVLQQSDLPAAKWGLATVGTCHAVISRLLLYSARPLFNGNKLYSTVKNPDAPDFPELSGVKLFPELDNTKWQKAAEAAKKLIDNPCYELYRAGNDNPYEDYYGVTHETWNKELIWTDRYNGLFSWGVGTVPTGVAGTAYGAVGPTQALVDAYAMNTGWYPITGYEADGTPIVEPLSGYELASELEKSSWIYPSGGWSNKADFEIEAPNMYKDREPRFYVTVFFGGNQWLHGNSATSISFAKGGNGNKSHDYPKSGYLCNRFYDHKLNSSEGQWGNITFPVFRLGEIYLNFIEAVLECKKNGVALDPSYEALAMEKWADLRKRAGLDPITSIYGQVSTEELIQLCRKERQIELAFERHRYFDTRTWMIATQTDNGKMYGMNTSCPLDAGMKGTETPDGFWERTAFETRVFQNKHYLYPFSQRELDRNKLLTQNYGW
# Tests used:
# Assay in all cases: glycan array binding signal (z-score within array); higher = stronger binding
# Conditions in all cases: glycan notation: IUPAC condensed, linker removed
# [1] = target: Neu5Ac(a2-6)Gal(b1-4)GlcNAc(b1-2)Man(a1-3)[Man(a1-6)]Man(b1-4)GlcNAc(b1-4)GlcNAc
# Procedure, shortened: (§1)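 The Consortium for Functional Glycomics database supplied 3228 glycan arrays, of which those lacking an available protein sequence were dropped. The binding signal, a within-array Z-score, was averaged across arrays of the same protein sequence and across linkers. Negative scores can be read as non-binding.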
# [2] = target: Neu5Ac(a2-6)Gal(b1-4)GlcNAc(b1-2)Man(a1-3)[Neu5Ac(a2-3)Gal(b1-4)GlcNAc(b1-2)Man(a1-6)]Man(b1-4)GlcNAc(b1-4)GlcNAc
# Procedure, shortened: as §1
# [3] = target: Neu5Ac(a2-6)Gal(b1-4)GlcNAc(b1-2)Man(a1-3)[Neu5Ac(a2-6)Gal(b1-4)GlcNAc(b1-2)Man(a1-6)]Man(b1-4)GlcNAc(b1-4)GlcNAc
# Procedure, shortened: as §1
# [4] = target: Neu5Ac(a2-6)Gal(b1-4)GlcNAc(b1-2)Man(a1-3)[Neu5Ac(a2-6)Gal(b1-4)GlcNAc(b1-2)Man(a1-6)]Man(b1-4)GlcNAc(b1-4)[Fuc(a1-6)]GlcNAc
# Procedure, shortened: as §1
# [5] = target: Neu5Ac(a2-6)Gal(b1-4)GlcNAc(b1-2)Man(a1-6)Man(b1-4)GlcNAc(b1-4)GlcNAc
# Procedure, shortened: as §1
# [6] = target: Neu5Ac(a2-6)Gal(b1-4)GlcNAc(b1-2)Man(a1-6)[Gal(b1-4)GlcNAc(b1-2)Man(a1-3)]Man(b1-4)GlcNAc(b1-4)GlcNAc
# Procedure, shortened: as §1
# [7] = target: Neu5Ac(a2-6)Gal(b1-4)GlcNAc(b1-2)Man(a1-6)[GlcNAc(b1-2)Man(a1-3)]Man(b1-4)GlcNAc(b1-4)GlcNAc
# Procedure, shortened: as §1
# [8] = target: Neu5Ac(a2-6)Gal(b1-4)GlcNAc(b1-2)Man(a1-6)[Man(a1-3)]Man(b1-4)GlcNAc(b1-4)GlcNAc
# Procedure, shortened: as §1
# [9] = target: Neu5Ac(a2-6)Gal(b1-4)GlcNAc(b1-2)[Neu5Ac(a2-6)Gal(b1-4)GlcNAc(b1-4)]Man(a1-3)[GlcNAc(b1-4)][Neu5Ac(a2-6)Gal(b1-4)GlcNAc(b1-2)[Neu5Ac(a2-6)Gal(b1-4)GlcNAc(b1-6)]Man(a1-6)]Man(b1-4)GlcNAc(b1-4)GlcNAc
# Procedure, shortened: as §1
# [10] = target: Neu5Ac(a2-6)Gal(b1-4)GlcNAc(b1-2)[Neu5Ac(a2-6)Gal(b1-4)GlcNAc(b1-4)]Man(a1-3)[GlcNAc(b1-4)][Neu5Ac(a2-6)Gal(b1-4)GlcNAc(b1-4)Man(a1-6)]Man(b1-4)GlcNAc(b1-4)GlcNAc
# Procedure, shortened: as §1
# [11] = target: Neu5Ac(a2-6)Gal(b1-4)GlcNAc(b1-2)[Neu5Ac(a2-6)Gal(b1-4)GlcNAc(b1-6)]Man(a1-6)[Neu5Ac(a2-6)Gal(b1-4)GlcNAc(b1-2)Man(a1-3)][GlcNAc(b1-4)]Man(b1-4)GlcNAc(b1-4)GlcNAc
# Procedure, shortened: as §1
# [12] = target: Neu5Ac(a2-6)Gal(b1-4)GlcNAc(b1-3)Gal(b1-3)GlcNAc
# Procedure, shortened: as §1
# [13] = target: Neu5Ac(a2-6)Gal(b1-4)GlcNAc(b1-3)Gal(b1-4)GlcNAc
# Procedure, shortened: as §1
# [14] = target: Neu5Ac(a2-6)Gal(b1-4)GlcNAc(b1-3)Gal(b1-4)GlcNAc(b1-2)Man(a1-3)[Neu5Ac(a2-6)Gal(b1-4)GlcNAc(b1-3)Gal(b1-4)GlcNAc(b1-2)Man(a1-6)]GalNAc
# Procedure, shortened: as §1
# [15] = target: Neu5Ac(a2-6)Gal(b1-4)GlcNAc(b1-3)Gal(b1-4)GlcNAc(b1-3)Gal(b1-4)GlcNAc
# Procedure, shortened: as §1
# [16] = target: Neu5Ac(a2-6)Gal(b1-4)GlcNAc(b1-3)Gal(b1-4)GlcNAc(b1-3)Gal(b1-4)GlcNAc(b1-2)Man(a1-3)[Neu5Ac(a2-6)Gal(b1-4)GlcNAc(b1-3)Gal(b1-4)GlcNAc(b1-3)Gal(b1-4)GlcNAc(b1-2)Man(a1-6)]GalNAc
# Procedure, shortened: as §1
# [17] = target: Neu5Ac(a2-6)Gal(b1-4)GlcNAc(b1-3)Gal(b1-4)GlcNAc(b1-3)GalNAc
# Procedure, shortened: as §1
# [18] = target: Neu5Ac(a2-6)Gal(b1-4)GlcNAc(b1-3)Gal(b1-4)GlcNAc(b1-3)[Neu5Ac(a2-6)Gal(b1-4)GlcNAc(b1-3)Gal(b1-4)GlcNAc(b1-6)]GalNAc
# Procedure, shortened: as §1
# [19] = target: Neu5Ac(a2-6)Gal(b1-4)GlcNAc(b1-3)Gal(b1-4)GlcNAc(b1-6)[Gal(b1-3)]GalNAc
# Procedure, shortened: as §1
# [20] = target: Neu5Ac(a2-6)Gal(b1-4)GlcNAc(b1-3)Gal(b1-4)[Fuc(a1-3)]GlcNAc(b1-3)Gal(b1-4)[Fuc(a1-3)]GlcNAc
# Procedure, shortened: as §1
# [21] = target: Neu5Ac(a2-6)Gal(b1-4)GlcNAc(b1-3)GalNAc
# Procedure, shortened: as §1
# [22] = target: Neu5Ac(a2-6)Gal(b1-4)GlcNAc(b1-3)[Neu5Ac(a2-6)Gal(b1-4)GlcNAc(b1-6)]GalNAc
# Procedure, shortened: as §1
# [23] = target: Neu5Ac(a2-6)Gal(b1-4)GlcNAc(b1-6)GalNAc
# Procedure, shortened: as §1
# [24] = target: Neu5Ac(a2-6)Gal(b1-4)GlcNAc(b1-6)[Gal(b1-3)GlcNAc(b1-3)]Gal(b1-4)Glc
# Procedure, shortened: as §1
# [25] = target: Neu5Ac(a2-6)Gal(b1-4)GlcNAc(b1-6)[Gal(b1-3)]GalNAc
# Procedure, shortened: as §1
# [26] = target: Neu5Ac(a2-6)Gal(b1-4)GlcNAc6S
# Procedure, shortened: as §1
# Neu5Ac(a2-6)GalNAc = target: Neu5Ac(a2-6)GalNAc
# Procedure, shortened: as §1
# [27] = target: Neu5Ac(a2-6)GalNAc(b1-4)GlcNAc
# Procedure, shortened: as §1
# [28] = target: Neu5Ac(a2-6)GalNAc(b1-4)GlcNAc6S
# Procedure, shortened: as §1
# [29] = target: Neu5Ac(a2-6)GlcNAc(b1-4)GlcNAc
# Procedure, shortened: as §1
binder,measurement,setting,value
B1,glycan array binding signal (z-score),[1],-0.398
same,glycan array binding signal (z-score),[2],-1.01
same,glycan array binding signal (z-score),[3],-0.365
same,glycan array binding signal (z-score),[4],-0.236
same,glycan array binding signal (z-score),[5],-0.947
same,glycan array binding signal (z-score),[6],6.49
same,glycan array binding signal (z-score),[7],7
same,glycan array binding signal (z-score),[8],-0.861
same,glycan array binding signal (z-score),[9],-0.332
same,glycan array binding signal (z-score),[10],-0.708
same,glycan array binding signal (z-score),[11],-0.576
same,glycan array binding signal (z-score),[12],-0.881
same,glycan array binding signal (z-score),[13],-0.998
same,glycan array binding signal (z-score),[14],-0.505
same,glycan array binding signal (z-score),[15],-0.866
same,glycan array binding signal (z-score),[16],1.32
same,glycan array binding signal (z-score),[17],-0.398
same,glycan array binding signal (z-score),[18],1.19
same,glycan array binding signal (z-score),[19],-0.841
same,glycan array binding signal (z-score),[20],-1.07
same,glycan array binding signal (z-score),[21],1.42
same,glycan array binding signal (z-score),[22],-0.109
same,glycan array binding signal (z-score),[23],-0.617
same,glycan array binding signal (z-score),[24],1.82
same,glycan array binding signal (z-score),[25],-0.546
same,glycan array binding signal (z-score),[26],2.04
same,glycan array binding signal (z-score),Neu5Ac(a2-6)GalNAc,0.171
same,glycan array binding signal (z-score),[27],-0.78
same,glycan array binding signal (z-score),[28],-0.358
same,glycan array binding signal (z-score),[29],0.582

# Some of the entries so far, with bars between the fields.
binder | measurement | setting | value
B1 | glycan array binding signal (z-score) | [7] | 7
same | glycan array binding signal (z-score) | [15] | -0.866
